# Several values for one entry are separate records, joined by “and”; a condition that tells them apart may be missing. Identical values can stand only once. This is one part of the list. Shown are side measurements of this screen, not its main read-out; they come without a call. The list favours compounds with an active or inconclusive main result. Potencies come from curve fits of mixed quality, noted in brackets.
# Test: qHTS Assay to Find Inhibitors of Chronic Active B-Cell Receptor Signaling
# Details: ABC-DLBCL IkBa-CBG/CBR reporter, luminescence ratio (green luciferase fused to IkBa over red control in TMD8 lymphoma cells), 4 h
# Procedure, shortened: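 Compounds up to 46 uM were incubated four hours with TMD8 cells whose green CBG68 luciferase is fused to IkappaBalpha; red CBR luminescence normalised the signal, and concentration-effect curves were fitted to fusion, red and ratio data.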
# [1] = measured here: CBR red luminescence, cell number
# [2] = measured here: IkBa-CBG green luminescence
SMILES,AC50 [1],AC50 [2]
Cc1cc(C(=O)CN2C(=O)c3ccccc3C2=O)c(C)n1C1CC1,"8.91 µM [falling, full curve, poor fit]",
COc1cc(CCC(=O)Nc2ccc(S(=O)(=O)N3CCOCC3)cc2)cc(OC)c1OC,"23.1 µM [rising, single point]",
O=C(CCCN1C(=O)/C(=C/c2ccccc2)SC1=S)Nc1ccc(C(=O)O)c(O)c1,"11.2 µM [falling, partial curve, poor fit]",
CN(C)c1nc(Oc2ccc(N)cc2)nc(N(C)C)n1,"29.1 µM [rising, single point]",
O=C(c1ccc(S(=O)(=O)N2CCCCCC2)cc1)N1CCN(Cc2ccccc2)CC1,"3.66 µM [rising, partial curve, poor fit]",
O=C(CN1C(=O)S/C(=C\C=C\c2ccccc2)C1=O)Nc1ccc(O)cc1,"20.6 µM [falling, single point]","20.6 µM [falling, single point]"
Cc1ccccc1-c1noc(-c2ccccc2C(=O)O)n1,"12.6 µM [falling, partial curve, poor fit]",
O=C(O/N=C1/CCSc2ccccc21)c1ccc(F)cc1,"3.55 µM [falling, partial curve, poor fit]",
O=C(CSc1nnc(SCc2cccc3ccccc23)s1)Nc1ccc(C(=O)O)cc1,"12.6 µM [falling, partial curve, poor fit]",
Cc1ccc(NC2CCCN(C(=O)c3cn(C)c4ccccc34)C2)cc1C (stereo not drawn),"2.51 µM [rising, partial curve, poor fit]",
CCCCSc1nnc2c(n1)OC(C(=O)c1ccccc1)Nc1ccccc1-2 (stereo not drawn),"14.6 µM [falling, single point]",
COc1cc(C(=O)Nc2nc(C)c(Cc3ccc4c(c3)OCO4)s2)cc(OC)c1OC,,"6.51 µM [falling, partial curve]"
CC(C)c1nc(-c2ccc([N+](=O)[O-])cc2)cs1,"16.4 µM [rising, partial curve]",
Cn1c(SCC(=O)NCC2CCCO2)nnc1-c1ccco1 (stereo not drawn),"0.82 µM [rising, full curve, poor fit]",
Cc1ccccc1CN1C(=O)C(O)(CC(=O)c2ccccc2)c2cc(Cl)ccc21 (stereo not drawn),"35.5 µM [falling, single point]",
CCOc1ccc(N2C(=O)C(c3ccccc3)=C(c3nc4ccccc4s3)C2NC(C)=O)cc1 (stereo not drawn),"13 µM [falling, partial curve]",
Cc1ccccc1OCc1n(CC(=O)OC2CC(C)CCC2C(C)C)c2ccccc2[n+]1C (stereo not drawn),"10 µM [falling, partial curve, poor fit] and 35.5 µM [falling, single point]","35.5 µM [rising, partial curve, poor fit]"
COc1cc2nc(Nc3ccc(C)c(Cl)c3)nc(N)c2cc1OC,"3.55 µM [falling, full curve, poor fit]",
NC(=O)CSc1ncnc2c1oc1ccccc12,"1.64 µM [rising, partial curve, poor fit]",
COc1cc(C(=O)NCC(=O)OCC(=O)c2ccc[nH]2)cc(OC)c1OC,"8.2 µM [rising, partial curve, poor fit]",

SMILES,AC50 [1],AC50 [2]
COc1ccc(-n2nc3c(c2NC(=O)c2ccc(S(=O)(=O)N4CCOCC4)cc2)CS(=O)C3)cc1 (stereo not drawn),"35.5 µM [falling, partial curve, poor fit]",
CC(=O)Nc1ccc(-c2csc(Nc3ccccn3)n2)cc1,"12.6 µM [falling, partial curve]",
Cc1nc(NC(=O)c2ccco2)sc1C(=O)Nc1ccc(Br)cc1,"0.631 µM [falling, full curve, poor fit]",
Cc1ccc(-c2nc3c(c(=O)[nH]c(=O)n3Cc3ccccc3)n2Cc2ccccc2)o1,"35.5 µM [falling, single point]",
O=C(CCCN1C(=O)c2ccccc2C1=O)N1CCC(c2ccccc2)C1 (stereo not drawn),"6.51 µM [rising, single point]",
CCOc1cc(C#N)c(NC(=O)c2cccnc2)cc1OCC,"20 µM [rising, single point]","12.6 µM [falling, single point]"
O=C(O)CSc1nnc(SCc2cccc3ccccc23)s1,"13 µM [falling, partial curve, poor fit]",
CCn1c(SCC(=O)Nc2nc3c(s2)CCCC3)nnc1-c1ccccc1,"11.2 µM [falling, partial curve, poor fit]",
COc1cc(Cl)c(C)cc1NC(=O)CN(C)Cc1cccc(OC)c1OC,"35.5 µM [falling, single point]","7.08 µM [rising, full curve, poor fit]"
CC(C)(O)c1cc(=O)sc2nc3ccccc3n12,"1.46 µM [rising, partial curve, poor fit]",
COCCCNC(=O)c1c(N)n(-c2ccc3c(c2)OCO3)c2nc3ccccc3nc12,"0.708 µM [falling, partial curve, poor fit]",
CC(C)(C)c1nc(SCC(=O)c2ccccc2)c2ccccc2n1,"1.78 µM [falling, full curve]",
Cn1c(SCc2ccc(C#N)cc2)nnc1-c1ccncc1,"35.5 µM [rising, single point]",
O=C(CN1CCCCCC1)Nc1ccc(F)c(F)c1F,"10.3 µM [falling, partial curve]",
CC(C)c1cc(C(=O)Nc2cccc(C(F)(F)F)c2)no1,"5.8 µM [rising, partial curve]",
COc1ccc(C(C)=O)cc1CSc1nc2ccccc2c(=O)n1-c1ccccc1,"0.164 µM [rising, full curve]",
Cc1ccc(S[C@@H](CCN2CC[C@H](C)CCC2=O)c2ccccc2)cc1,,"12.6 µM [rising, partial curve, poor fit]"
Cc1nc2c(o1)CCc1ccccc1C2N1CCN(C)CC1 (stereo not drawn),"35.5 µM [falling, single point]",
CCc1ccc(/C(C)=N/NC(=O)c2ccccn2)cc1,"35.5 µM [falling, single point]",

# — PubChem BioAssay AID493014 (National Center for Advancing Translational Sciences (NCATS), 2011)
